Reference: the supplement of paper PMC10849652
This is one part of the list.

The chains behind the UniProt entries cited, without tags or fusion partners. Where a name states a change or a piece, a line headed by the entry shows the natural chain unless it says otherwise.
UniProt P51811: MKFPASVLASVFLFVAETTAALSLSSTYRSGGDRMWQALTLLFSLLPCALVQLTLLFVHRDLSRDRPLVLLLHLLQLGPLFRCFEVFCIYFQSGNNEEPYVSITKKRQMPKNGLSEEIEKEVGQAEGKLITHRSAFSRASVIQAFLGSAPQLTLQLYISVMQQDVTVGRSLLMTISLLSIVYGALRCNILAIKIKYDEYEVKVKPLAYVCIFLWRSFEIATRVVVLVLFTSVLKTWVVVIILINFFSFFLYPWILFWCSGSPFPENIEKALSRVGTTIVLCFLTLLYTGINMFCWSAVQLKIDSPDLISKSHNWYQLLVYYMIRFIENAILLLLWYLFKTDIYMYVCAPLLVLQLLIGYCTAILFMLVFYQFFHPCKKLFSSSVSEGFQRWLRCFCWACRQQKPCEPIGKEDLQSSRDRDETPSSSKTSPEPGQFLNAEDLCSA
UniProt Q96P53: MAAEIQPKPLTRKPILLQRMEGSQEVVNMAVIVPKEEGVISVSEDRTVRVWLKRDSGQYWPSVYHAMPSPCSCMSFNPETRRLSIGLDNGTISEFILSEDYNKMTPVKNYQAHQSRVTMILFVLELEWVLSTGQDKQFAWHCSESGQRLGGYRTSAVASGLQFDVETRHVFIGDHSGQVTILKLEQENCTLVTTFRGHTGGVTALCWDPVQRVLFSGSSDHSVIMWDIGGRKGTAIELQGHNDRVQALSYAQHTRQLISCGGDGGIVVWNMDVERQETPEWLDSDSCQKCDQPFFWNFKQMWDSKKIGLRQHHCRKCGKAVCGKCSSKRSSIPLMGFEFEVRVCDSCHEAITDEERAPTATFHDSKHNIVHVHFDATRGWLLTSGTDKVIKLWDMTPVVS
UniProt Q9HD64: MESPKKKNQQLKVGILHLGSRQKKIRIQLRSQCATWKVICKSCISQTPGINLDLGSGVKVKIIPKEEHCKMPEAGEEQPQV
UniProt Q8NEZ3: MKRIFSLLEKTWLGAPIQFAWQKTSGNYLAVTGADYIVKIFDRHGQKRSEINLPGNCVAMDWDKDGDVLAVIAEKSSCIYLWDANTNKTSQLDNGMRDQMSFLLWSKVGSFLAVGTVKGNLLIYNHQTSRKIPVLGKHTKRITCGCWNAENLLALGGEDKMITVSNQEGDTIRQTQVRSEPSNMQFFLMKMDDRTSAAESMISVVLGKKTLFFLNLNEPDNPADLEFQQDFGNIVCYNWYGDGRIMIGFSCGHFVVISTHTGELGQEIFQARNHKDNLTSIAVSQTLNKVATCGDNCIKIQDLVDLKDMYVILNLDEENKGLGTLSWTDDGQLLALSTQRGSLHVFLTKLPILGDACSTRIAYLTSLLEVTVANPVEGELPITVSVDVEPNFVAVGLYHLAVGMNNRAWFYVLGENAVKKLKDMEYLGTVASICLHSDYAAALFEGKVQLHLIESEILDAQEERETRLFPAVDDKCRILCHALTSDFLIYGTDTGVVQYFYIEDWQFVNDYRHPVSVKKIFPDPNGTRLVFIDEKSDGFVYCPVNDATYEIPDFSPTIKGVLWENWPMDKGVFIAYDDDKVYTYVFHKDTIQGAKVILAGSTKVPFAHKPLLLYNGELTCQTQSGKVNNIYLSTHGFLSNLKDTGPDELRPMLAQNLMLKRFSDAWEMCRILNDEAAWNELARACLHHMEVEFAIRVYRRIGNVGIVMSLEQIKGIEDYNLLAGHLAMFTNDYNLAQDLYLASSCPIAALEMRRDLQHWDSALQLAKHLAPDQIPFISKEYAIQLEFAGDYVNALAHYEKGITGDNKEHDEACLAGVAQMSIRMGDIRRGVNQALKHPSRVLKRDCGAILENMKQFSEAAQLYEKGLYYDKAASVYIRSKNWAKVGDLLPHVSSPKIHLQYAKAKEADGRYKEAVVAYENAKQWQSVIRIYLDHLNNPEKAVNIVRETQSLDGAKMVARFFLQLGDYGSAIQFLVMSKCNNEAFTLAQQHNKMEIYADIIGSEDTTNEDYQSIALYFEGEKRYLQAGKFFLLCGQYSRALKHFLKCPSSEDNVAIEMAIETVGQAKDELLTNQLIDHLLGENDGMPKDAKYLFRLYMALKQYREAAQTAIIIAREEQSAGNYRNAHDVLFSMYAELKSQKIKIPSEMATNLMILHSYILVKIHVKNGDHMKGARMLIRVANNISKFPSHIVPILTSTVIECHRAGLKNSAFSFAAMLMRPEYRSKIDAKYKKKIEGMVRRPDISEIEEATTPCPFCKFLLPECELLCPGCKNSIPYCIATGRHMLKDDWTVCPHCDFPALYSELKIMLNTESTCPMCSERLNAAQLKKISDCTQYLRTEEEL
UniProt Q96EX3: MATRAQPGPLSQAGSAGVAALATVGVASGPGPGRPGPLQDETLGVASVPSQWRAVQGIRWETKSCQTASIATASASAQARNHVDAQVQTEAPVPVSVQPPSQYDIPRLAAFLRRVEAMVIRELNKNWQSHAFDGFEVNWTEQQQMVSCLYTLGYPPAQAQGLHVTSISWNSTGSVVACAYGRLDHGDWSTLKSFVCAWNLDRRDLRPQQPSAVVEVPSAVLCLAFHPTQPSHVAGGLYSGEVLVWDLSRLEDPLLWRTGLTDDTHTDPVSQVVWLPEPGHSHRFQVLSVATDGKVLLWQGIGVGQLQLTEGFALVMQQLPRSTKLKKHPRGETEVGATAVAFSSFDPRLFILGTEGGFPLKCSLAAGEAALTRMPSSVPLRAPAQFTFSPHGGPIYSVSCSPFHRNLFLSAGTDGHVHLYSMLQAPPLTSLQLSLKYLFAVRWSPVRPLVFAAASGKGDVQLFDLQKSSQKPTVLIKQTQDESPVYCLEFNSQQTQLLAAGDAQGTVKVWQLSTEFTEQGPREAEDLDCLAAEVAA
UniProt Q9P2L0: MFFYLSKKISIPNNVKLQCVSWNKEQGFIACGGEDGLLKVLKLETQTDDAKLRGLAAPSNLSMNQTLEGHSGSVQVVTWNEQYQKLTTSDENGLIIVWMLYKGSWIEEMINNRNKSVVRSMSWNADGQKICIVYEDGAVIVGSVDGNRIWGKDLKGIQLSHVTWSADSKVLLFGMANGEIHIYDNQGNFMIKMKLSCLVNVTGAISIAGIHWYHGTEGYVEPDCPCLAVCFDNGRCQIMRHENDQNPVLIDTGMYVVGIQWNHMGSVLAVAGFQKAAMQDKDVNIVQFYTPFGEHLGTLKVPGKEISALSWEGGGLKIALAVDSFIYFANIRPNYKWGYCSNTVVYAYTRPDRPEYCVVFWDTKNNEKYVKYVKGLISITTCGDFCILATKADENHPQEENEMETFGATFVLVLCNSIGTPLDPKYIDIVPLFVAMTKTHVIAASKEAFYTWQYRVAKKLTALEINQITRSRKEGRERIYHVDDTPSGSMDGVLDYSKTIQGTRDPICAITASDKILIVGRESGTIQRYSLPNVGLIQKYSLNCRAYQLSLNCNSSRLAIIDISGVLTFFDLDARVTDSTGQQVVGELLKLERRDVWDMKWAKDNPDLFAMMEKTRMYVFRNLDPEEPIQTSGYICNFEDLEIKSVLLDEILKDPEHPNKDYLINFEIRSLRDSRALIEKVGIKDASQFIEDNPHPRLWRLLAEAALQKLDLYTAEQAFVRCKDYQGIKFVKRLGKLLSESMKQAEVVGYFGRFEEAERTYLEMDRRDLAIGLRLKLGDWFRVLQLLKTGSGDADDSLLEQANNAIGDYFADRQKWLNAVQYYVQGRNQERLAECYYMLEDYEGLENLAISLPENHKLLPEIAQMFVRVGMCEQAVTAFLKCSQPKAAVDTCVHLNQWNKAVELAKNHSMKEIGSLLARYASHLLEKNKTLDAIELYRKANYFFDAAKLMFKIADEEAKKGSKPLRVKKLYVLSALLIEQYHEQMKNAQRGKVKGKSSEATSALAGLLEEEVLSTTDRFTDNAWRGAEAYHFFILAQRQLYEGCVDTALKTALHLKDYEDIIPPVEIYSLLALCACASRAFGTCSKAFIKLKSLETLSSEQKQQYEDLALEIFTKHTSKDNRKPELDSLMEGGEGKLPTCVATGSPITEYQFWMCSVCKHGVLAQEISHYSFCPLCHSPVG
UniProt Q9BRX9: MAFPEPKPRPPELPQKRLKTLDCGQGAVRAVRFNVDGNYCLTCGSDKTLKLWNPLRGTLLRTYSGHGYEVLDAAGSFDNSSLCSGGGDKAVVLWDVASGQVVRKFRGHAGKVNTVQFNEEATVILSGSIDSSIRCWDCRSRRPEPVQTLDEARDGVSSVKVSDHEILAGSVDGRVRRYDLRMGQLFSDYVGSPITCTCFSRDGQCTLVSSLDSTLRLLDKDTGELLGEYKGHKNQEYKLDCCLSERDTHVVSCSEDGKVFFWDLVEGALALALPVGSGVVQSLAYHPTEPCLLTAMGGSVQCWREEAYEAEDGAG
UniProt Q9NQA3: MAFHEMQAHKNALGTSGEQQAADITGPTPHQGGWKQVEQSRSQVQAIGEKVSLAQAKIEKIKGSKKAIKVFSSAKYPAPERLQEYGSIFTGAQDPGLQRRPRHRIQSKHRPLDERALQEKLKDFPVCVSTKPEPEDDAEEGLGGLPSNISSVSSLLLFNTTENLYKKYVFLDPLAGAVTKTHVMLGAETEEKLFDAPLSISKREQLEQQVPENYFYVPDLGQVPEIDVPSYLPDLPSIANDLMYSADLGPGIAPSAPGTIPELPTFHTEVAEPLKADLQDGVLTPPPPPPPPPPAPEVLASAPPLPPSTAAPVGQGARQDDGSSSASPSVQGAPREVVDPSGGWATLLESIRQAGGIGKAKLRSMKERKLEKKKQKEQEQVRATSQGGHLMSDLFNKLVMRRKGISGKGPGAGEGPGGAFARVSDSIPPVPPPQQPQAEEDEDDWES
UniProt Q96MX6, whole entry, looked up: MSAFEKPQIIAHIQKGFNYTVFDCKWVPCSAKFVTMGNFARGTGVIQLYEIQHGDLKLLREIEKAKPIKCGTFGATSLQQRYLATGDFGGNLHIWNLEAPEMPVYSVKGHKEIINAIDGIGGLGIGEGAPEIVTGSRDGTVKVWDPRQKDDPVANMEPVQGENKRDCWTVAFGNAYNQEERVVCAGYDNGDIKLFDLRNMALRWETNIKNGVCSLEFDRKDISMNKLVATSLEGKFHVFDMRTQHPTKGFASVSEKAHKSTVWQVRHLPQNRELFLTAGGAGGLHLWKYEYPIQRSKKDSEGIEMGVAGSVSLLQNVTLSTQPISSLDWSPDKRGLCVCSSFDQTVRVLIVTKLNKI
UniProt Q9Y6I7: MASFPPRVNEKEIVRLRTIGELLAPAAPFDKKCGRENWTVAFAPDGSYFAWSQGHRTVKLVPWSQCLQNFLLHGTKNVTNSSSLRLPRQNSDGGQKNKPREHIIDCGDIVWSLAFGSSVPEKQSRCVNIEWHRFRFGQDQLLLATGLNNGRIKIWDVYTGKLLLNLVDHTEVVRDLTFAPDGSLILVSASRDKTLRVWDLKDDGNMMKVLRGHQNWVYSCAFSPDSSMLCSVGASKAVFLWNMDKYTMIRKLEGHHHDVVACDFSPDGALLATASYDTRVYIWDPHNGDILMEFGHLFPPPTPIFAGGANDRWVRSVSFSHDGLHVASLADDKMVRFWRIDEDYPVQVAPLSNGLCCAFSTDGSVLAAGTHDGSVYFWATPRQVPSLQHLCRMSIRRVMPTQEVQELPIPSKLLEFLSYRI
UniProt P17861: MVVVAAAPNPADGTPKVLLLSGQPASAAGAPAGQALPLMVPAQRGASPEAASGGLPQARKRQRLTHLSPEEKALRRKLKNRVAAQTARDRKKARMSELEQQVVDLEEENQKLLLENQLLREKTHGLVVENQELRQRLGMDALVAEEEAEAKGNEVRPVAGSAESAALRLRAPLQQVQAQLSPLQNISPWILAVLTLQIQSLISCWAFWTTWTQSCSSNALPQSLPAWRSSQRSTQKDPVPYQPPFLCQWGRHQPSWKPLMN
UniProt Q9UEU0: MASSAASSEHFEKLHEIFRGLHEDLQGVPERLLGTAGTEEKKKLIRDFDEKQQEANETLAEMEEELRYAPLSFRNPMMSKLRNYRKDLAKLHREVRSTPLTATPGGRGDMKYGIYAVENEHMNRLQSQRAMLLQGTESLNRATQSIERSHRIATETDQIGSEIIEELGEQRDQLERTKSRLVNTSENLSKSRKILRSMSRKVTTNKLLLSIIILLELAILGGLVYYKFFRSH
UniProt Q7Z5U6: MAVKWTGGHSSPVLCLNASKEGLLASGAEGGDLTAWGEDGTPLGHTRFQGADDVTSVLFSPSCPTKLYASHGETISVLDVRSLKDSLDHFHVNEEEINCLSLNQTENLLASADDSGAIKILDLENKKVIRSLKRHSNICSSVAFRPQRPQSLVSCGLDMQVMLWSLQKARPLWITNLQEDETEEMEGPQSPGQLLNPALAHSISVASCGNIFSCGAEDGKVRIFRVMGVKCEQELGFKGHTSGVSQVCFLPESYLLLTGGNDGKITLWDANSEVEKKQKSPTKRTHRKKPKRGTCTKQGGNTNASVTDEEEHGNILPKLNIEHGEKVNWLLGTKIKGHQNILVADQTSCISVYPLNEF
UniProt Q96HA8: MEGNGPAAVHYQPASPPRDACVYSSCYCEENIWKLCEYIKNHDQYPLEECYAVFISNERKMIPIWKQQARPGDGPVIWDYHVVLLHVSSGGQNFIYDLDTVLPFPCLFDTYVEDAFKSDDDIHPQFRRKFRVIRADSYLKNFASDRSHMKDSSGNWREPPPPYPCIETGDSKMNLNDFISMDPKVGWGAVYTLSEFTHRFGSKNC

Experiments:
Test in all cases: log2 fold change, soluble protein after heating vs DMSO (PISA); higher = thermal stabilisation; K562 lysate, 10 uM; active = over 0.2 and 3.5 SD of the protein, either way, in both replicates (recomputed)
vemurafenib = compound: CCCS(=O)(=O)Nc1ccc(F)c(C(=O)c2c[nH]c3ncc(-c4ccc(Cl)cc4)cc23)c1F [vemurafenib]
Method in brief: (§1)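 K562 pellets were dounce-homogenised in PBS pH 7.4 with 1 mM MgCl2, and the crude extract at 1 mg/mL protein was treated with 10 μM compound for 30 min. Aliquots were heated for 3 min across 48°C-58°C, pooled, and brought to 0.5% NP-40 at 4°C; soluble protein was the supernatant after 21,000xg for 90 min. Soluble protein was quantified by TMTpro 16plex LC-MS/MS with channel sums equalised, and reported as log2 fold change in thermal stability against DMSO controls, with values from duplicates.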

[1] = compound: CCCS(=O)(=O)Nc1ccc(F)c(C(=O)c2c[nH]c3ncc(Cl)cc23)c1F
Method in brief: as §1

volasertib = compound: CC[C@@H]1C(=O)N(C)c2cnc(Nc3ccc(C(=O)N[C@H]4CC[C@H](N5CCN(CC6CC6)CC5)CC4)cc3OC)nc2N1C(C)C [volasertib]
Method in brief: as §1

[2] = compound: CCn1c(C(=O)N(C2CC2)C2CC2)cc2c3c(ncn3C)c(Nc3cc(C)n(C)n3)nc21
Method in brief: as §1

saracatinib = compound: CN1CCN(CCOc2cc(OC3CCOCC3)c3c(Nc4c(Cl)ccc5c4OCO5)ncnc3c2)CC1 [saracatinib]
Method in brief: as §1

sotrastaurin = compound: CN1CCN(c2nc(C3=C(c4c[nH]c5ccccc45)C(=O)NC3=O)c3ccccc3n2)CC1 [sotrastaurin]
Method in brief: as §1

[3] = compound: CC[C@@H]1C(=O)N(C)c2cnc(Nc3ccc(C(=O)NC4CCN(C)CC4)cc3OC)nc2N1C1CCCC1
Method in brief: as §1

barasertib = compound: CCN(CCCOc1ccc2c(Nc3cc(CC(=O)Nc4cccc(F)c4)[nH]n3)ncnc2c1)CCOP(=O)(O)O [barasertib]
Method in brief: as §1

[4] = compound: CCn1cc(-c2ccnc3[nH]c(-c4cccc(CN(C)C)c4)cc23)c(-c2ccc(NC(=O)N(C)C)cc2)n1
Method in brief: as §1

[5] = compound: CN1CCC(CNc2ccc3ncc(-c4cccc(OC(F)(F)F)c4)n3n2)CC1
Method in brief: as §1

Measured: log2 fold change

VPS29 (UniProt Q9UBQ0)
inactive: vemurafenib 0.012 | [1] 0.069 | volasertib 0.057 | [2] 0.004 | saracatinib -0.034 | sotrastaurin -0.008

WDR76 (UniProt Q9H967)
inactive: [3] -0.035 | [2] 0.14 | saracatinib 0.014 | sotrastaurin -0.064

XK (UniProt P51811)
inactive: [1] 0.221 | barasertib 0.08 | [3] 0.207 | volasertib 0.013 | [2] -0.045 | [4] 0.096 | [5] 0.037 | saracatinib -0.022

VPS72 (UniProt Q15906)
inactive: vemurafenib 0.054 | [1] -0.139 | [3] -0.009 | volasertib 0.162 | [2] 0.021 | [4] 0.056 | [5] 0.078 | saracatinib 0.04 | sotrastaurin 0.024

Pulled one by one from the list above (two):
VPS29 (UniProt Q9UBQ0)
inactive: vemurafenib 0.012 | [1] 0.069 | volasertib 0.057 | [2] 0.004 | saracatinib -0.034 | sotrastaurin -0.008

VPS72 (UniProt Q15906)
inactive: vemurafenib 0.054 | [1] -0.139 | [3] -0.009 | volasertib 0.162 | [2] 0.021 | [4] 0.056 | [5] 0.078 | saracatinib 0.04 | sotrastaurin 0.024

Next records

WDFY2 (UniProt Q96P53)
inactive: saracatinib 0.013

VPS33B (UniProt Q9H267)
inactive: vemurafenib 0.01 | [1] 0.012 | barasertib 0.003 | [3] -0.026 | volasertib -0.034 | [2] 0.011 | [4] -0.048 | [5] 0.003 | saracatinib 0.017 | sotrastaurin 0.006

WDR18 (UniProt Q9BV38)
inactive: vemurafenib 0.017 | [1] 0.052 | barasertib 0.063 | [3] 0.058 | volasertib -0.018 | [2] 0.023 | [4] -0.022 | [5] 0.096 | saracatinib -0.009 | sotrastaurin -0.039

XAGE1A (UniProt Q9HD64)
inactive: vemurafenib -0.007 | barasertib -0.057 | [3] -0.159

WDR19 (UniProt Q8NEZ3)
inactive: [1] -0.244 | barasertib -0.115 | volasertib 0.063 | [4] 0.032 | [5] 0.05 | sotrastaurin -0.009

WARS1 (UniProt G3V5U1)
inactive: [1] 0.001 | barasertib 0.501 | [3] -0.609 | volasertib -0.034

WDR34 (UniProt Q96EX3)
inactive: vemurafenib 0.131 | barasertib 0.059 | [3] -0.163 | [2] 0.028 | [4] -0.019 | [5] 0.089 | saracatinib 0.003 | sotrastaurin -0.101

WEE1 (UniProt P30291)
inactive: vemurafenib 0.029 | [1] 0.056 | barasertib 0.015 | [3] -0.25 | volasertib -0.032 | [2] -0.077 | saracatinib -0.016 | sotrastaurin -0.1

VLDLR (UniProt P98155)
inactive: barasertib -0.036 | [2] 0.073 | sotrastaurin -0.107

WDR35 (UniProt Q9P2L0)
inactive: [2] 0.261

WDR83 (UniProt Q9BRX9)
inactive: vemurafenib -0.126 | [1] 0.015 | barasertib 0.104 | volasertib 0.176 | [2] 0.107 | saracatinib 0.042

WDR46, A0A0G2JJL1
inactive: vemurafenib -0.144 | [1] 0.031 | barasertib -0.013 | volasertib 0.074 | [2] -0.011 | [4] -0.012 | [5] 0.031 | saracatinib 0.106

WWOX (UniProt Q9NZC7)
inactive: vemurafenib 0.023 | [2] 0.132 | [4] 0.281 | [5] -0.234 | saracatinib 0.012 | sotrastaurin 0.104

WASH6P (UniProt Q9NQA3)
inactive: barasertib -0.104

WASF2 (UniProt Q9Y6W5)
inactive: vemurafenib 0.034 | [1] 0.036 | barasertib -0.004 | [3] 0.011 | volasertib -0.019 | [2] 0.014 | [4] -0.007 | [5] 0.012 | saracatinib 0 | sotrastaurin -0.016

WARS1 (UniProt G3V456)
inactive: [1] -0.248 | volasertib 0.178

WDR92 (UniProt Q96MX6)
inactive: vemurafenib -0.04 | [1] 0.011 | barasertib 0.027 | [3] -0.079 | volasertib -0.016 | [2] 0.04 | [4] 0.009 | [5] 0.046 | saracatinib -0.023 | sotrastaurin 0.009

VPS51 (UniProt Q9UID3)
inactive: vemurafenib -0.043 | [1] 0.029 | barasertib 0.038 | [3] -0.015 | volasertib -0.05 | [2] -0.004 | [4] 0.143 | [5] -0.071 | saracatinib 0.02 | sotrastaurin 0.001

WDR13, A0A087X091
inactive: vemurafenib 0.018 | [4] 0.117 | [5] -0.147

VPS35, A0A1W2PP10
inactive: [1] -0.062 | barasertib -0.202 | volasertib -0.06 | [4] -0.123 | [5] 0.085 | sotrastaurin 0.152

WIPI1 (UniProt Q5MNZ9)
inactive: [1] 0.044 | barasertib 0.04 | [3] 0.119 | volasertib -0.014 | [2] -0.043 | [4] -0.079 | [5] 0.022 | saracatinib 0.025 | sotrastaurin -0.074

WSB1 (UniProt Q9Y6I7)
inactive: [2] 0.105 | [4] 0.078 | [5] 0.08 | saracatinib -0.159

XBP1 isoform 2 (UniProt P17861)
inactive: [2] 0.127

XP32 (UniProt Q5T750)
inactive: [4] 0.145 | [5] -0.224 | sotrastaurin 0

WIPI2 isoform 6 (UniProt Q9Y4P8)
inactive: barasertib 0.04 | [4] -0.24 | [5] -0.016

WDR54 isoform 4 (UniProt Q9H977)
inactive: vemurafenib 0.018 | barasertib -0.094 | [3] 0.168 | [4] 0.104 | [5] 0.197 | saracatinib -0.11 | sotrastaurin 0.03

XIRP2 isoform 8 (UniProt A4UGR9)
inactive: [1] 0.043 | barasertib 0.007 | volasertib -0.035 | [2] 0.167

VTI1B (UniProt Q9UEU0)
inactive: [1] 0.028 | barasertib 0.045 | [3] 0.087 | volasertib -0.005 | [2] -0.029 | [4] -0.034 | [5] 0.009 | saracatinib 0.003 | sotrastaurin 0.024

WDR66 (UniProt Q8TBY9)
inactive: vemurafenib 0.15 | [2] -0.307

VWA3B isoform 6 (UniProt Q502W6)
inactive: [1] -0.006 | barasertib 0.12 | [3] -0.132 | volasertib -0.005 | [2] 0.024 | [4] -0.189 | [5] 0.218 | saracatinib -0.015 | sotrastaurin 0.02

WDR53 (UniProt Q7Z5U6)
inactive: vemurafenib 0.127 | barasertib -0.007 | [3] 0.013 | [2] 0.012 | [4] 0.076 | [5] -0.057 | saracatinib -0.012 | sotrastaurin 0.119

WARS1 (UniProt G3V277)
inactive: vemurafenib 0.124 | barasertib -0.106 | [3] 0.027

WDYHV1 (UniProt Q96HA8)
inactive: vemurafenib 0.065 | [1] -0.065 | [3] -0.023 | volasertib -0.045 | [2] 0.143 | saracatinib -0.033 | sotrastaurin 0.101

WDTC1 (UniProt Q8N5D0)
inactive: vemurafenib -0.017 | [1] 0.017 | barasertib 0.067 | [3] -0.04 | volasertib -0.035 | [2] -0.032 | [4] 0.008 | [5] -0.061 | saracatinib 0.022 | sotrastaurin -0.023

WAS (UniProt P42768)
inactive: barasertib 0.046 | [3] 0.043 | [4] 0.007 | [5] 0.019 | saracatinib -0.136
